Source: patent US9540428B2, “Extracellular matrix heparin-binding domains” (EPFL-TTO, priority 2012, dated 2017)

Assay: Incorporation of fragments into 2% TG-PEG gel
Details: 5 μM fragment, after 2 washes with PBS

Molecule | fragments bound into gels
FN III9*-10-TNC III1-5: fusion protein of fibronectin integrin binding domain FN III9*-10 and TNC III1-5 with TG substrate, SEQ ID NO:5 | 96%
TNC III1-5: recombinant tenascin C fibronectin type III repeats 1-5 (E622 to A1074) with transglutaminase substrate NQEQVSPL and 6×His tag, SEQ ID NO:1 (protein, Tenascin III signal sequence with polyhistidine tag) METDTLLLWVLLLWVPGSTGDAAQPAIEGRNQEQVSPLGGSEVSPPKDLVVTEVTEETVNLAWDNEMRVTEYLVVYTPTHEGGLEMQFRVPGDQTSTIIQELEPGVEYFIRVFAILENKKSIPVSARVATYLPAPEGLKFKSIKETSVEVEWDPLDIAFETWEIIFRNMNKEDEGEITKSLRRPETSYRQTGLAPGQEYEISLHIVKNNTRGPGLKRVTTTRLDAPSQIEVKDVTDTTALITWFKPLAEIDGIELTYGIKDVPGDRTTIDLTEDENQYSIGNLKPDTEYEVSLISRRGDMSSNPAKETFTTGLDAPRNLRRVSQTDNSITLEWRNGKAAIDSYRIKYAPISGGDHAEVDVPKSQQATTKTTLTGLRPGTEYGIGVSAVKEDKESNPATINAATELDTPKDLQVSETAETSLTLLWKTPLAKFDRYRLNYSLPTGQWVGVQLPRNTTSYVLRGLEPGQEYNVLLTAEKGRHKSKPARVKASTEQAGGGSHHHHHH | 98%
